In general, AC50 refers to the concentration at which the activity in the assay is half-maximal. High values mean weaker potency, low ones greater potency.

The results in this text go back to PubChem BioAssay AID2685 (National Center for Advancing Translational Sciences (NCATS), 2010).

The test in a line: qHTS Assay for Lipid Storage Modulators in Drosophila S3 Cells.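 On cell number change: cells counted by Cell Tracker Red CMTPX staining in the red channel.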 Conditions: BODIPY lipid droplet fluorescence, 18-24 h; for cell number change: measured here: cell count max response, cells fed with added oleic acid. The method, boiled down:
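Drosophila S3 cells got compounds at several concentrations plus oleic acid (400 uM solution). Laser-scanning cytometry with 488 nm excitation read lipid droplets at 500-530 nm and cells at 575-640 nm. Percent activity was relative to 20 uM Triacsin C.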

Where [1] appears, read: measured here: lipid fluorescence (Fed channel) AC50, cells fed with added oleic acid.
The mark [2] stands for this setting: measured here: cell number channel AC50, cells fed with added oleic acid.

The list shows a part of the results. Shown are side measurements of this screen, not its main read-out; they come without a call. Most of these compounds were active or inconclusive in the main read-out, so they are no random draw. Potencies come from curve fits of mixed quality, noted in brackets.

Regarding `CCCCc1nc2cc(C(=O)NCCc3cnn(C)c3)ccc2o1`, the cell number change was -8.42%. In addition, under setting [1], the AC50 was 6.51 µM [falling, single point].

With `CCOc1cc(/C=N/Nc2ccccc2Cl)ccc1OCC(=O)O`, the AC50 under setting [1] is 18.4 µM [rising, single point]. Regarding `CCn1cc(/C=C(\NC(=O)c2cc(OC)c(OC)c(OC)c2)C(=O)N2CCN(C)CC2)c2ccccc21`, the AC50 under setting [1] was 0.731 µM [rising, full curve]. `CC(NC(=O)c1ccccc1F)C1CC1` (configuration not stated): the cell number change came out at 8.75%. For the same compound, the AC50 under setting [1] was 1.03 µM [rising, single point]. `CC(=O)Nc1ccc(OC(=O)CC2SC(=O)NC2=O)cc1` (configuration not stated): under setting [1], the AC50 was 0.82 µM [rising, full curve, poor fit].

For `C=CCN=C(NC#N)SC`, the cell number change was -31.7%. Further, the AC50 under setting [2] was 7.31 µM [falling, partial curve, poor fit]. Moreover, the AC50 under setting [1] was 13 µM [falling, partial curve, poor fit]. On to `Cc1ccc(CNC(=O)c2ccc(Cn3cc(-c4ccc(C)cc4)nc3-c3ccncc3)cc2)cc1`, for which the cell number change stood at 8.08%. As to `Cc1cc(C)nc(Sc2ccc(/C=C(\C#N)C(N)=O)o2)n1`, the cell number change was found to be 9.66%. Moreover, the AC50 under setting [1] is 1.84 µM [rising, partial curve, poor fit]. `COCCn1cnc2c1c(=O)[nH]c(=O)n2Cc1ccccc1`: the AC50 under setting [2] is 6.51 µM [rising, single point]. In the case of `COc1cccc(NC(=O)CCC2CCN(C(=O)c3scnc3C)CC2)c1`, the cell number change amounted to 24.3%. With `CCSc1nnc(NC(=O)c2cc(C)nc3ccccc23)s1`, the cell number change was found to be 13.7%. For the same compound, the AC50 under setting [1] was 0.82 µM [rising, full curve, poor fit].

On to `CC12CCC(c3nnc(SCC(=O)Nc4cccc5ccccc45)nc31)C2(C)C` (configuration not stated), for which the cell number change is -30.4%. In addition, the AC50 under setting [2] was 8.2 µM [falling, partial curve].

For `CCOCCCNC(=O)c1ccc2c(c1)N(Cc1ccccc1)C(=O)CS2=O` (configuration not stated), the AC50 under setting [1] was 8.2 µM [rising, partial curve]. With `COc1ccc(NC(=O)c2ccc3c(c2)CCN3S(=O)(=O)c2ccccc2)cc1`, the cell number change is -7.03%. Further, under setting [1], the AC50 was 14.6 µM [rising, partial curve]. As to `NC(=O)CC(NC(=O)Cc1ccc(Br)cc1)c1ccc(NCc2ccc(F)c(F)c2)c([N+](=O)[O-])c1` (configuration not stated), the cell number change was found to be 14.8%. In addition, under setting [1], the AC50 is 32.6 µM [falling, single point]. Take `Cc1cccc(-c2c3c(=O)n(C)c(=O)n(C)c3c3cccnn23)c1`: the cell number change was 3.93%. In addition, the AC50 under setting [1] was 0.116 µM [rising, full curve].

Regarding `Cc1ccc(-c2cc(C(=O)Nc3cccnc3)c3ccccc3n2)o1`, the cell number change was -15.4%.

On to `O=C(CCc1nc2sc3c(c2c(=O)[nH]1)CCCC3)NCCc1ccc(F)cc1`, for which, under setting [1], the AC50 is 22.4 µM [rising, partial curve, poor fit]. Take `COc1ccc2c(C)cc3nnnn3c2c1`: the cell number change came to 21%.

As to `CC(=O)c1ccc(CCCC(=O)O)cc1`, the cell number change amounted to 2.79%. The AC50 under setting [1] is 9.2 µM [falling, partial curve, poor fit]. On to `O=C(CSc1nnc(-c2ccccc2)c(-c2ccccc2)n1)NCc1ccco1`, for which the cell number change was -24.8%. Besides, under setting [1], the AC50 is 32.6 µM [falling, partial curve, poor fit]. As for `O=C(COC(=O)c1ncc(Cl)c(Cl)c1Cl)NC(=O)NCc1ccccc1`, the cell number change was -69%. Moreover, the AC50 under setting [2] is 29.1 µM [falling, single point]. For `O=C(CNc1cccc2ccccc12)N/N=C/c1ccccn1`, the cell number change is 18.2%. Besides, the half-maximal activity concentration (AC50) under setting [2] was 3.66 µM [rising, partial curve, poor fit]. For the same compound, under setting [1], the AC50 is 6.51 µM [rising, partial curve, poor fit].

As for `c1ccc(Oc2cccc(OCCCCN3CCCC3)c2)cc1`, the cell number change is -6.43%. The AC50 under setting [1] is 29.1 µM [rising, single point]. Regarding `Cc1cccc(C)c1NC(=O)N1CCC(c2nc3ccccc3o2)CC1`, the cell number change is -72.1%. Besides, under setting [2], the AC50 was 5.8 µM [falling, partial curve]. Moreover, under setting [1], the AC50 is 2.59 µM [falling, full curve].

With `N#Cc1cnc(NOCc2ccc(Cl)cc2)nc1`, the cell number change was -15.5%. The AC50 under setting [1] was 32.6 µM [falling, single point]. In the case of `COc1ccc(/C=C/C(=O)OCC(=O)Nc2ccc(Cl)c(S(=O)(=O)N(C)C)c2)cc1OC`, under setting [1], the AC50 was 6.51 µM [rising, single point]. Regarding `COCCNC(=O)C(c1ccc(C)o1)N(C(=O)c1snc(C(N)=O)c1N)c1cccc(C)c1` (configuration not stated), the cell number change was -6.67%. For the same compound, the AC50 under setting [1] is 3.66 µM [rising, single point].

As to `COc1ccc(OC)c(NC(=O)c2cnn(-c3ccccc3Cl)c2NC(=O)c2ccco2)c1`, the cell number change was 82.4%. Also, the AC50 under setting [2] was 16.4 µM [rising, partial curve]. The AC50 under setting [1] was 0.651 µM [rising, single point]. In the case of `O=c1cc(O)c2sc3nc(-c4ccccc4)cc(C(F)(F)F)c3c2[nH]1`, the cell number change is -0.905%. Besides, the AC50 under setting [1] is 0.092 µM [falling, full curve, poor fit].

`CCOC(=O)N1CCN(C(=O)CNC(=O)Cc2ccc(Cl)cc2)CC1`: the cell number change was -20.3%. For the same compound, under setting [2], the concentration at half-maximal activity (AC50) was 0.13 µM [falling, full curve, poor fit]. Also, the AC50 under setting [1] was 6.51 µM [falling, single point]. On to `O=C(CCNC(=O)c1ccccc1Cl)Nc1ccc(Cl)c(C(F)(F)F)c1`, for which the cell number change came to 18.2%. Also, under setting [2], the AC50 was 0.146 µM [rising, full curve, poor fit]. Besides, under setting [1], the AC50 is 29.1 µM [rising, partial curve]. `CCOC(=O)c1c(CN(CC)CC)n(C)c2cc(Br)c(O)cc12`: the cell number change amounted to 18.2%.

In the case of `CCN(CC(=O)Nc1c(F)cccc1F)C(=O)c1cc(C)nc2ccccc12`, the cell number change was 24%.

Turning to `O=C(Cn1c(=O)n(Cc2ccco2)c(=O)c2cc(Cl)ccc21)NCC1CCCO1` (configuration not stated), the cell number change is -4.87%. Also, under setting [1], the half-maximal activity concentration (AC50) was 29.1 µM [rising, single point]. For `Cc1ccc(S(=O)(=O)NC(=O)N2CCCN(Cc3ccc(F)cc3)CC2)cc1`, the cell number change is -42.8%. The AC50 under setting [2] is 0.651 µM [falling, full curve]. For the same compound, the half-maximal activity concentration (AC50) under setting [1] is 0.731 µM [falling, full curve]. `CCCNC(=O)Cn1cnc2sc(C(=O)NCCN(CC)CC)c(C)c2c1=O`: the cell number change came out at 20.4%. Besides, the AC50 under setting [1] is 20.6 µM [rising, single point]. In the case of `COc1ccc(C(=O)NC(=S)NCc2ccccc2)cc1`, the cell number change stood at 31.3%. Further, under setting [2], the AC50 is 0.146 µM [rising, full curve, poor fit]. For the compound `O=C(N/N=C/c1ccccc1)c1ccc(CN2C(=O)c3cccc4cccc2c34)cc1`, the cell number change is -6.21%.

Regarding `O=C(NC1CCCC1)C(c1ccncc1)N(Cc1ccccc1)C(=O)Cc1cccs1` (configuration not stated), the AC50 under setting [1] is 2.31 µM [falling, partial curve]. `N#Cc1ccccc1NC1=CC(=O)CCC1`: the cell number change turned out to be 7.69%. For the same compound, the concentration at half-maximal activity (AC50) under setting [1] was 5.17 µM [falling, partial curve]. For `Cc1ccc(S(=O)(=O)C2(C(=O)Nc3cccnc3)CC2)cc1`, the concentration at half-maximal activity (AC50) under setting [1] is 3.26 µM [rising, partial curve]. As to `CCCCn1c(N)c(N(CCOC)C(=O)c2ccc(C)c(S(=O)(=O)N3CCCCC3)c2)c(=O)[nH]c1=O`, the cell number change was -6%. In the case of `COc1ccc(OC)c(S(=O)(=O)Nc2cnc3ccccc3c2)c1`, the cell number change was -6.41%. The half-maximal activity concentration (AC50) under setting [1] was 2.06 µM [rising, full curve].

Take `O=C(Cc1ccc(Cl)cc1)Nc1ccc(-c2nnc(-c3ccco3)o2)cc1`: the cell number change is -47.8%. For the same compound, the AC50 under setting [2] was 32.6 µM [falling, partial curve]. Under setting [1], the AC50 was 29.1 µM [falling, single point]. For `Cc1ccccc1Nc1nnc(SCC2CCCCO2)s1` (configuration not stated), the half-maximal activity concentration (AC50) under setting [1] is 6.51 µM [rising, single point]. Turning to `O=C(COC(=O)CN1C(=O)C(=O)c2ccccc21)OCN1C(=O)c2ccccc2C1=O`, the cell number change turned out to be 13.5%. As to `COC(=O)c1cc(CNC(=O)c2ccc(S(=O)(=O)N(C)c3ccccc3)cc2)ccc1OC`, the cell number change is -15.9%.

As to `CC(=O)c1cccc(S(=O)(=O)NC2CC2)c1`, the AC50 under setting [1] was 1.16 µM [rising, full curve, poor fit]. Regarding `CC1=NN(c2ccccc2)C(=O)/C1=C\c1ccc(Oc2ccc([N+](=O)[O-])cc2[N+](=O)[O-])cc1`, the cell number change is -8.81%. Moreover, under setting [1], the AC50 is 20.6 µM [falling, single point].

Turning to `CCOc1cc(/C=N/NC(=O)NN(C)c2ncc(C(F)(F)F)cc2Cl)ccc1O`, the cell number change is -22.4%. Also, under setting [2], the AC50 was 3.26 µM [falling, single point]. Turning to `CCCC(CCC)n1[nH]c(=O)c2c(C)cc(C)nc21`, the cell number change is -15.1%. Moreover, the AC50 under setting [2] was 6.51 µM [falling, single point].

With `CS(=O)(=O)N1c2cccc3cccc(c23)S1(=O)=O`, the cell number change was -41.4%. The AC50 under setting [2] is 29.1 µM [falling, single point]. For the compound `O=C(OCc1nc2ccccc2s1)c1ccc(Br)o1`, the cell number change is -50.8%. Moreover, the AC50 under setting [2] is 2.31 µM [falling, full curve]. Besides, the AC50 under setting [1] was 1.64 µM [falling, partial curve]. Take `COC(=O)c1ccccc1OCCOc1ccccc1C(=O)OC`: the cell number change was found to be 20.8%. Take `CCc1cccc(C)c1NC(=O)CSc1nnc(C)o1`: the cell number change amounted to 1.76%. Under setting [1], the AC50 was 0.82 µM [falling, full curve, poor fit]. Take `Cc1ccc(S(=O)(=O)Nc2ccc3c(c2)nc(CCN2CCOCC2)n3C)cc1`: the cell number change was -26.4%. The concentration at half-maximal activity (AC50) under setting [1] was 10.3 µM [falling, partial curve].

For the compound `O=C(COc1ccc2ccccc2c1Br)Nn1cnnc1`, the cell number change came to 13%. The AC50 under setting [2] was 1.46 µM [falling, partial curve]. Further, the AC50 under setting [1] was 0.731 µM [falling, full curve]. On to `CCCCOc1ccc(CSC2=NCCN2)cc1[N+](=O)[O-]`, for which the AC50 under setting [2] was 0.651 µM [rising, single point]. Turning to `C=CCn1c(SCC(=O)/C(C#N)=C(\C)N)nc2sc(CC)cc2c1=O`, the cell number change is -32.4%. In addition, under setting [2], the half-maximal activity concentration (AC50) was 2.91 µM [falling, full curve, poor fit]. The AC50 under setting [1] is 8.2 µM [falling, partial curve].

Take `Cc1cccc(Cc2nnc(CCC(=O)N(C)CCc3ccccc3)o2)c1`: the cell number change is 1.1%.

With `Cc1ccc(OC(=O)c2cc3ccccc3o2)cc1`, the cell number change was -24.4%. In addition, the AC50 under setting [2] was 0.146 µM [falling, full curve, poor fit]. Also, under setting [1], the AC50 was 0.146 µM [falling, full curve, poor fit].
